Among the data in PMC5996148 are binding signal values, retold here.

What all share (assay): protein microarray (ProtoArray v5.0), streptavidin-Alexa Fluor 647
What all share (conditions): 3'-biotin; 20 mM Tris (pH 7.5), 5 mM MgCl2, 100 mM KCl, 0.1% Tween-20, A/T-rich and random oligonucleotide blockers; temperature not stated; high values mean tight binding

In assay [1] the test system is NFKBIB (human).
Assay [2] deals with NFU1 iron-sulfur cluster scaffold homolog, mitochondrial (human).
In assay [3] the test system is NINJ2 (human).
For assay [4], the system named is NIPSNAP3B (human).
Assay [5] relates to NIT2 (human).
In assay [6] the test system is NKG2D ligand 4 (human).
Assay [7] has as its system NLRP2 (human).
The subject of assay [8] is NME1 (human).
Assay [9] concerns NME5 (human).
Assay [10] concerns NME6 (human).

The list shows a part of the results.

Consider “GGTGACAGGGGTATGGGGAGGGG [G4-2 biotinylated (Ct1)]”, for which the binding signal was -0.385 z-score in [1]; -0.391 z-score in assay [2]; -0.387 z-score in assay [3]; -0.39 z-score in assay [4]; -0.394 z-score in [5]; -0.362 z-score in [6]. The binding signal in assay [7] was -0.372 z-score; in [8], -0.394 z-score; in assay [9], -0.394 z-score; in [10], -0.386 z-score.
